# Results: patent US20240352128A1
# By UniProt entry, the sequences of proteins in these tests, tags left out. Residues count along the entry.
# UniProt P08637, residues 17-208: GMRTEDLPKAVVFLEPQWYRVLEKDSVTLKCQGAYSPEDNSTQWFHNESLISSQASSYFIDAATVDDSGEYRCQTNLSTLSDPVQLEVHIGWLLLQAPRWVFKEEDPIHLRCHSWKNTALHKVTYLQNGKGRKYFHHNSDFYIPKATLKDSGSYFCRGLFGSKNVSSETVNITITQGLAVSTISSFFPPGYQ
# No constants are given. Whether binding was seen depends on the method and setting. Some entries that bind do so weakly or less than the wild type. Sequences can lack the tags named with a protein.
# Molecular target: recombinant human CD16a-His protein (Acro Biosystems; catalog #: CDA-H52S1) (human) (UniProt P08637)
# Assay: ELISA, CD16a coated, sdAb-mIgG1 Fc
row,binding,Binder
1,binds,AR8776 sdAb fusion protein with mIgG1 Fc (Fc fusion) AVQLVESGGGLVQPGGSLRLSCAASGFTFSNYAMSWVRQAPGKGLEWVSSINRGGSITNYADSVKGRFAISRDNAKNTIYLQMNNLRPEDTAQYSCARGDSTYSRLSAAYRGQGTQVTVSSVPRDCGCKPCICTVPEVSSVFIFPPKPKDVLTITLTPKVTCVVVDISKDDPEVQFSWFVDDVEVHTAQTQPREEQFNSTFRSVSELPIMHQDWLNGKEFKCRVNSAAFPAPIEKTISKTKGRPKAPQVYTIPPPKEQMAKDKVSLTCMITDFFPEDITVEWQWNGQPAENYKNTQPIMDTDGSYFVYSKLNVQKSNWEAGNTFTCSVLHEGLHNHHTEKSLSHSPGK
2,binds,AR8875 sdAb fusion protein with mIgG1 Fc (Fc fusion) QVQLVESGGGLVQPGGSLRLSCAASGFTFSNYAMTWVRQAPGKGLEWVSSIDRGGSITSYADSVKGRFAISRDNAKNTMYLQMNNLRPEDTARYVCARGDSTYSRLTAAYRGQGTQVTVSSVPRDCGCKPCICTVPEVSSVFIFPPKPKDVLTITLTPKVTCVVVDISKDDPEVQFSWFVDDVEVHTAQTQPREEQFNSTFRSVSELPIMHQDWLNGKEFKCRVNSAAFPAPIEKTISKTKGRPKAPQVYTIPPPKEQMAKDKVSLTCMITDFFPEDITVEWQWNGQPAENYKNTQPIMDTDGSYFVYSKLNVQKSNWEAGNTFTCSVLHEGLHNHHTEKSLSHSPGK
3,binds,AR8866 sdAb fusion protein with mIgG1 Fc (Fc fusion) QVKLEESGGGLVQPGGSLRLSCVASGFTFSVWTMSWVRQAPGKGLEWVSDISHSGIYTTYADSVKGRFTISRDNAKNTLWLQLNALKPEDTAVYYCAQGNRRNSMLSGTLRGQGTQVTVSSVPRDCGCKPCICTVPEVSSVFIFPPKPKDVLTITLTPKVTCVVVDISKDDPEVQFSWFVDDVEVHTAQTQPREEQFNSTFRSVSELPIMHQDWLNGKEFKCRVNSAAFPAPIEKTISKTKGRPKAPQVYTIPPPKEQMAKDKVSLTCMITDFFPEDITVEWQWNGQPAENYKNTQPIMDTDGSYFVYSKLNVQKSNWEAGNTFTCSVLHEGLHNHHTEKSLSHSPGK
4,binds,AR8861 sdAb fusion protein with mIgG1 Fc (Fc fusion) AVQLVDSGGGLVQPGGSLRLSCVASGFTFSIWTMSWVRQAPGKGLEWVSDISHSGLYTTYADSVKGRFTISRDNAKNTLWLQLNALKPEDTAVYYCAQGNRRTSMLSGTLRGQGTQVTVSSVPRDCGCKPCICTVPEVSSVFIFPPKPKDVLTITLTPKVTCVVVDISKDDPEVQFSWFVDDVEVHTAQTQPREEQFNSTFRSVSELPIMHQDWLNGKEFKCRVNSAAFPAPIEKTISKTKGRPKAPQVYTIPPPKEQMAKDKVSLTCMITDFFPEDITVEWQWNGQPAENYKNTQPIMDTDGSYFVYSKLNVQKSNWEAGNTFTCSVLHEGLHNHHTEKSLSHSPGK
5,binds,AR8804 sdAb fusion protein with mIgG1 Fc (Fc fusion) AVQLVDSGGGLVQAGGSLRLSCAASGSSVSRYAMAWYRQAPGKERELVAVVRITGIPIYADFVKGRFTISRDNAKNTVLLQMNSLEPEDTAIYYCNTGNFNTYTRRYSPSETWGQGTQVTVSSVPRDCGCKPCICTVPEVSSVFIFPPKPKDVLTITLTPKVTCVVVDISKDDPEVQFSWFVDDVEVHTAQTQPREEQFNSTFRSVSELPIMHQDWLNGKEFKCRVNSAAFPAPIEKTISKTKGRPKAPQVYTIPPPKEQMAKDKVSLTCMITDFFPEDITVEWQWNGQPAENYKNTQPIMDTDGSYFVYSKLNVQKSNWEAGNTFTCSVLHEGLHNHHTEKSLSHSPGK
6,binds,AR8820 sdAb fusion protein with mIgG1 Fc (Fc fusion) QVKLEESGGGLVQAGGSLRLSCAASGSSISRYAMAWYRQGPGKERELVAVVRITGSPIYADFVGGRFTISRDNAKSTVLLQMNSLKPEDTAIYYCNTGNFNTYTRRYSPSETWGQGTQVTVSSVPRDCGCKPCICTVPEVSSVFIFPPKPKDVLTITLTPKVTCVVVDISKDDPEVQFSWFVDDVEVHTAQTQPREEQFNSTFRSVSELPIMHQDWLNGKEFKCRVNSAAFPAPIEKTISKTKGRPKAPQVYTIPPPKEQMAKDKVSLTCMITDFFPEDITVEWQWNGQPAENYKNTQPIMDTDGSYFVYSKLNVQKSNWEAGNTFTCSVLHEGLHNHHTEKSLSHSPGK
7,binds,AR8887 sdAb fusion protein with mIgG1 Fc (Fc fusion) QVQLVESGGGLVQAGGSLRLSCAVSGFLYYSIGWFRQAPGKEREWVSCISRSGAGTSYANSVKGRSTISRDNDKNTVYLQMNSLKSEDTAVYYCARRATSSCTATMTRGQYDYWGQGTQVTVSSVPRDCGCKPCICTVPEVSSVFIFPPKPKDVLTITLTPKVTCVVVDISKDDPEVQFSWFVDDVEVHTAQTQPREEQFNSTFRSVSELPIMHQDWLNGKEFKCRVNSAAFPAPIEKTISKTKGRPKAPQVYTIPPPKEQMAKDKVSLTCMITDFFPEDITVEWQWNGQPAENYKNTQPIMDTDGSYFVYSKLNVQKSNWEAGNTFTCSVLHEGLHNHHTEKSLSHSPGK
